Results from PubChem BioAssay AID220 (DTP/NCI, 2004).
The list does not hold the whole screen: it is rich in T/C values a quarter to a half above the control, in often repeated tests (any T/C) and in doses without a T/C. Other doses and runs of a compound stand elsewhere. T/C gives the treated animals as a percentage of the vehicle group. Schedule codes are those of the source, taken here to give the interval after Q, in days (D) or hours (H), and the number of doses after X. Some T/C values are followed by the survivors on the day toxicity was checked, most often the fifth; where none is given, no animal had died by that day. Some entries give survivors of the animals treated and no T/C: the source files T/C as zero there, which appears to mark a toxic dose or a test without result, not a measured value. Survivors were counted at the toxicity check, usually on the fifth day, unless a day is given; later deaths do not show. Some entries hold several experiments; their values stand side by side, smallest first.

Tested on: CD8F1 mice, subcutaneous mammary adenocarcinoma, T/C%
Test: NCI In Vivo Anticancer Drug Screen. Data for tumor model Mammary Adenocarcinoma CD8F1 (subcutaneous) in CD8F1
Conditions: higher T/C = larger tumour
Summary of the method: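 Mice carrying transplanted tumors received test compound, and survival or tumor size was recorded. Each value is the treated-group measurement divided by the corresponding measurement in vehicle-dosed controls.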

[1] = T/C endpoint: median tumor weight change, dose: 125.0 mg/kg/injection, schedule: Q01DX001 (ip), vehicle: saline with Tween-80
[2] = T/C endpoint: median tumor weight change, dose: 250.0 mg/kg/injection, schedule: Q01DX001 (ip), vehicle: saline with Tween-80
[3] = T/C endpoint: median tumor weight (est.), dose: 25.0 mg/kg/injection, schedule: Q07DX005 (ip), vehicle: saline with Tween-80, evaluated on day 30
[4] = T/C endpoint: median tumor weight change, dose: 1000.0 mg/kg/injection, schedule: Q01DX001 (ip), vehicle: Klucel (hydroxypropylcellulose) (HPC)
[5] = T/C endpoint: median tumor weight (est.), dose: 200.0 mg/kg/injection, schedule: Q07DX005 (ip), vehicle: Klucel (hydroxypropylcellulose) (HPC)

SMILES: COc1cc2cc(c1Cl)N(C)C(=O)C[C@H](OC(=O)[C@H](C)N(C)C(C)=O)[C@]1(C)O[C@H]1[C@H](C)[C@@H]1C[C@@](O)(NC(=O)O1)[C@H](OC)C=C/C=C(\C)C2
- T/C (T/C endpoint: median tumor weight change, dose: 125.0 micrograms/kg/injection, schedule: Q01DX001 (ip), vehicle: Klucel (hydroxypropylcellulose) (HPC), evaluated on day 33): 136 % of control
- survivor count (T/C endpoint: median tumor weight change, dose: 2000.0 micrograms/kg/injection, schedule: Q01DX001 (ip), vehicle: Klucel (hydroxypropylcellulose) (HPC)): 2 of 10 on day 36

SMILES: CCCCCCCCCCC(OC(C)=O)C1CCC(C2CCC(C(O)CCCCCCCCCCCCC3C=C(C)OC3=O)O2)O1 (stereo unspecified)
- T/C (T/C endpoint: median tumor weight change, dose: 2.5 mg/kg/injection, schedule: Q01DX001 (ip), vehicle: water, evaluated on day 33): 137 % of control
- T/C (T/C endpoint: median tumor weight change, dose: 5.0 mg/kg/injection, schedule: Q01DX001 (ip), vehicle: water, evaluated on day 33): 140 % of control [8 of 10 alive on day 33]
- T/C (T/C endpoint: median tumor weight change, dose: 20.0 mg/kg/injection, schedule: Q01DX001 (ip), vehicle: water, evaluated on day 33): 146 % of control

SMILES: [CH3][Sn]([CH3])([Cl])[S]CCN
- T/C (T/C endpoint: median tumor weight change, dose: 25.0 mg/kg/injection, schedule: Q01DX001 (ip), vehicle: saline, evaluated on day 33): 126 % of control
- T/C (T/C endpoint: median tumor weight change, dose: 50.0 mg/kg/injection, schedule: Q01DX001 (ip), vehicle: saline, evaluated on day 33): 140 % of control
- survivor count (T/C endpoint: median tumor weight change, dose: 100.0 mg/kg/injection, schedule: Q01DX001 (ip), vehicle: saline): 0 of 10 on day 33
- survivor count (T/C endpoint: median tumor weight change, dose: 200.0 mg/kg/injection, schedule: Q01DX001 (ip), vehicle: saline): 0 of 10 on day 33

SMILES: C[Si](C)(C)O/C=C1/CCOC1=O
- T/C (T/C endpoint: median tumor weight change, dose: 250.0 mg/kg/injection, schedule: Q01DX001 (ip), vehicle: saline, evaluated on day 27): 142 % of control
- survivor count (T/C endpoint: median tumor weight change, dose: 2000.0 mg/kg/injection, schedule: Q01DX001 (ip), vehicle: saline): 0 of 10 on day 27

SMILES: OCC1OC(n2cnc3c2NC=NC[C@H]3O)CC1O (stereo partly specified)
- T/C (T/C endpoint: median tumor weight (est.), dose: 1.0 mg/kg/injection, schedule: Q07DX005 (ip), vehicle: water, evaluated on day 30): 148 % of control

SMILES: O/N=C/c1ccccc1O.O/N=C/c1ccccc1O.[Cu]
- T/C (T/C endpoint: median tumor weight change, dose: 15.6 mg/kg/injection, schedule: Q01DX001 (ip), vehicle: saline with Tween-80, evaluated on day 36): 128 % of control
- survivor count [1]: 0 of 10 on day 36
- survivor count [2]: 0 of 10 on day 36

SMILES: COc1cc2c(ccc3c4cc(OC)c(OC)cc4c[n+](C)c23)cc1O
- T/C (T/C endpoint: median tumor weight change, dose: 125.0 mg/kg/injection, schedule: Q01DX001 (ip), vehicle: saline, evaluated on day 31): 137 % of control [9 of 10 alive on day 31]
- T/C (T/C endpoint: median tumor weight change, dose: 500.0 mg/kg/injection, schedule: Q01DX001 (ip), vehicle: saline, evaluated on day 31): 134 % of control [9 of 10 alive on day 31]

SMILES: CC[C@H]1CN2CCc3cc(OC)c(OC)cc3[C@@H]2C[C@@H]1C[C@H]1NCCc2cc(O)c(OC)cc21
- T/C (T/C endpoint: median tumor weight (est.), dose: 1.0 mg/kg/injection, schedule: Q07DX005 (ip), vehicle: saline, evaluated on day 30): 135 % of control

SMILES: C=C1N(C)c2ccccc2C1(C)C
- survivor count [2]: 0 of 10 on day 32
- survivor count (T/C endpoint: median tumor weight change, dose: 500.0 mg/kg/injection, schedule: Q01DX001 (ip), vehicle: saline with Tween-80): 0 of 10 on day 32
- survivor count (T/C endpoint: median tumor weight change, dose: 1000.0 mg/kg/injection, schedule: Q01DX001 (ip), vehicle: saline with Tween-80): 0 of 10 on day 32
- survivor count (T/C endpoint: median tumor weight change, dose: 2000.0 mg/kg/injection, schedule: Q01DX001 (ip), vehicle: saline with Tween-80): 0 of 10 on day 32

SMILES: CCCCCC[Se][Se]CCCCCC
- survivor count (T/C endpoint: median tumor weight change, dose: 125.0 mg/kg/injection, schedule: Q01DX001 (ip), vehicle: Klucel (hydroxypropylcellulose) (HPC)): 5 of 10 on day 33
- survivor count (T/C endpoint: median tumor weight change, dose: 250.0 mg/kg/injection, schedule: Q01DX001 (ip), vehicle: Klucel (hydroxypropylcellulose) (HPC)): 1 of 10 on day 33

SMILES: Cc1ccccc1SSc1ccccc1C
- T/C [3]: 129 % of control [9 of 10 alive]

SMILES: CCCCCCCCCCCCN1C(C)=CS/C1=C\C=C\c1scc(C)[n+]1CCCCCCCCCCCC
- survivor count (T/C endpoint: median tumor weight change, dose: 62.5 mg/kg/injection, schedule: Q01DX001 (ip), vehicle: saline with Tween-80): 4 of 10 on day 36
- survivor count [1]: 0 of 10 on day 36
- survivor count [2]: 0 of 10 on day 36

SMILES: CC(C)(C)C1CCCCC1
- T/C (T/C endpoint: median tumor weight (est.), dose: 50.0 mg/kg/injection, schedule: Q07DX005 (ip), vehicle: Klucel (hydroxypropylcellulose) (HPC), evaluated on day 30): 128 % of control

SMILES: C/C(=N/NC(N)=S)c1ccc2ccccc2c1
- survivor count (T/C endpoint: median tumor weight (est.), dose: 200.0 mg/kg/injection, schedule: Q07DX005 (ip), vehicle: saline with Tween-80): 3 of 10

SMILES: N#CC(=C1C=CC(=NO)C=C1)c1ccc(Cl)cc1
- T/C (T/C endpoint: median tumor weight (est.), dose: 12.5 mg/kg/injection, schedule: Q07DX005 (ip), vehicle: saline with Tween-80, evaluated on day 30): 145 % of control

SMILES: NC(CCl)=NCC12CC3CC(CC(C3)C1)C2
- T/C (T/C endpoint: median tumor weight (est.), dose: 25.0 mg/kg/injection, schedule: Q07DX005 (ip), vehicle: Klucel (hydroxypropylcellulose) (HPC), evaluated on day 32): 146 % of control

SMILES: CC(=O)N(C)c1ccc(Nc2cc(C)[nH]c3ccc4ncnc4c23)cc1
- survivor count (T/C endpoint: median tumor weight change, dose: 250.0 mg/kg/injection, schedule: Q01DX001 (ip), vehicle: saline): 0 of 10 on day 39 and 3 of 10 on day 31
- survivor count (T/C endpoint: median tumor weight change, dose: 500.0 mg/kg/injection, schedule: Q01DX001 (ip), vehicle: saline): 0 of 10 on day 39 and 1 of 10 on day 31
- survivor count (T/C endpoint: median tumor weight change, dose: 1000.0 mg/kg/injection, schedule: Q01DX001 (ip), vehicle: saline): 0 of 10 on day 39 and 1 of 10 on day 31

SMILES: O=c1s[se]c2ccccc12
- survivor count (T/C endpoint: median tumor weight (est.), dose: 100.0 mg/kg/injection, schedule: Q07DX005 (ip), vehicle: saline with Tween-80): 2 of 10 on day 30

SMILES: ClC1C(Cl)C(Cl)C(Cl)C(Cl)C1Cl (stereo unspecified)
- survivor count [4]: 2 of 10 on day 32

SMILES: CCN(CC)c1ccc2cc(-c3nc4ccccc4n3C)c(=O)oc2c1
- survivor count (T/C endpoint: median tumor weight (est.), dose: 50.0 mg/kg/injection, schedule: Q07DX005 (ip), vehicle: Klucel (hydroxypropylcellulose) (HPC)): 0 of 10 on day 30
- survivor count (T/C endpoint: median tumor weight (est.), dose: 100.0 mg/kg/injection, schedule: Q07DX005 (ip), vehicle: Klucel (hydroxypropylcellulose) (HPC)): 0 of 10 on day 30
- survivor count [5]: 0 of 10 on day 30
- survivor count (T/C endpoint: median tumor weight (est.), dose: 400.0 mg/kg/injection, schedule: Q07DX005 (ip), vehicle: Klucel (hydroxypropylcellulose) (HPC)): 0 of 10 on day 30
- survivor count [4]: 0 of 10 on day 33
- survivor count (T/C endpoint: median tumor weight change, dose: 2000.0 mg/kg/injection, schedule: Q01DX001 (ip), vehicle: Klucel (hydroxypropylcellulose) (HPC)): 0 of 10 on day 33

SMILES: Cc1nn(CCO)c(C)c1N=[N+]([O-])c1c(C)nn(CCO)c1C
- survivor count [5]: 0 of 10 on day 30

SMILES: O=NN(CCCl)C(=O)Oc1ccc(OC(=O)N(CCCl)N=O)cc1
- survivor count (T/C endpoint: median tumor weight change, dose: 100.0 mg/kg/injection, schedule: Q01DX001 (ip), vehicle: Klucel (hydroxypropylcellulose) (HPC)): 6 of 10 on day 36
- survivor count (T/C endpoint: median tumor weight change, dose: 200.0 mg/kg/injection, schedule: Q01DX001 (ip), vehicle: Klucel (hydroxypropylcellulose) (HPC)): 0 of 10 on day 36
- survivor count (T/C endpoint: median tumor weight change, dose: 400.0 mg/kg/injection, schedule: Q01DX001 (ip), vehicle: Klucel (hydroxypropylcellulose) (HPC)): 0 of 10 on day 36

SMILES: CN(C)/N=N/c1nc[nH]c1C(N)=O
- survivor count (T/C endpoint: median tumor weight (est.), dose: 800.0 mg/kg/injection, schedule: Q07DX004 (ip), vehicle: saline): 5 of 10

SMILES: CN(C)N=Nc1ccccc1
- T/C (T/C endpoint: median tumor weight (est.), dose: 12.5 mg/kg/injection, schedule: Q07DX005 (ip), vehicle: Klucel (hydroxypropylcellulose) (HPC), evaluated on day 30): 138 % of control
- survivor count (T/C endpoint: median tumor weight (est.), dose: 12.5 mg/kg/injection, schedule: Q07DX005 (ip), vehicle: Klucel (hydroxypropylcellulose) (HPC)): 2 of 10
- T/C (T/C endpoint: median tumor weight (est.), dose: 25.0 mg/kg/injection, schedule: Q07DX005 (ip), vehicle: Klucel (hydroxypropylcellulose) (HPC), evaluated on day 34): 131 % of control

SMILES: Nc1nc(-c2cccc3ccccc23)cc2ccccc12
- T/C [3]: 145 % of control
- survivor count (T/C endpoint: median tumor weight (est.), dose: 400.0 mg/kg/injection, schedule: Q07DX005 (ip), vehicle: saline with Tween-80): 6 of 10 on day 30
- survivor count (T/C endpoint: median tumor weight (est.), dose: 800.0 mg/kg/injection, schedule: Q07DX005 (ip), vehicle: saline with Tween-80): 2 of 10 on day 30

SMILES: CCCCCCCCCCCCCCCCCCOCC(COP(=O)([O-])OCC[N+](C)(C)C)OC (stereo unspecified)
- survivor count (T/C endpoint: median tumor weight change, dose: 125.0 mg/kg/injection, schedule: Q01DX001 (ip), vehicle: suspension in saline): 0 of 10 on day 28
- survivor count (T/C endpoint: median tumor weight change, dose: 250.0 mg/kg/injection, schedule: Q01DX001 (ip), vehicle: suspension in saline): 0 of 10 on day 28
